This is one part of the list. Some tests of the compounds listed are not included; inactive here does not mean inactive elsewhere.

A short description of the assay: inhibitors of triacylglycerol accumulation, primary screen, cell-based, uHTS, fluorescence, H9c2 (AID 651582). The conditions noted are these: H9c2 cells, Nile Red lipid (TAG) fluorescence; DAPI nuclei count viability; at 12.5 µM; cells loaded with 200 µM oleic acid.
On to `Cc1ccccc1C(=O)NCC1(N2CCCCC2)CCCCC1`, for which the DAPI activity (viability loss) is -7.48%.
Under `C=CCN1CCN(CCOC(=O)C(O)(c2ccccc2)c2ccccc2)CC1` stands -6.9%; under `O=C(NCC1(N2CCCCC2)CCCCC1)c1cc([N+](=O)[O-])ccc1Cl`, 3.68%; under `CCN(CC)CC(C)C(C)OC(=O)C(O)(c1ccccc1)c1ccccc1` (stereo unspecified), 13.4%.
Next, `CC(C)N1C(=O)CC2(CCN(CCOC(=O)C(O)(c3ccccc3)c3ccccc3)CC2)C1=O`: -0.92%.
Next, `O=C(OC1CN2CCC1CC2)C(CO)(c1ccccc1)c1ccccc1` (stereo unspecified): 4.63%; `C=C(C)C#CC(O)(C(=O)OC1CCN(C)CC1)c1ccccc1` (stereo unspecified): 6.17%; `COc1ccc(Br)c(C(=O)NCC2(N3CCCCC3)CCCCC2)c1`: 4.68%.
As to `O=C(OCCN1CCCC1)C(O)(c1ccccc1)c1ccccc1`, the DAPI activity (viability loss) was 1.98%.
Next, `CN(C)c1cccc(C(=O)NCC2(N(C)C)CCCCC2)c1`: -0.647%; `COc1cccc(C(=O)NCC2(N3CCCCC3)CCCCC2)c1`: -0.6%.

These data come from PubChem BioAssay AID651582 (Sanford-Burnham Center for Chemical Genomics, 2012).
